Data as given in the supplement of paper PMC10849652.
The other results are listed elsewhere or left out.

By UniProt entry, the sequences of proteins in these tests, tags left out. Where a name states a change or a piece, a line headed by the entry shows the natural chain unless it says otherwise.
UniProt P40261: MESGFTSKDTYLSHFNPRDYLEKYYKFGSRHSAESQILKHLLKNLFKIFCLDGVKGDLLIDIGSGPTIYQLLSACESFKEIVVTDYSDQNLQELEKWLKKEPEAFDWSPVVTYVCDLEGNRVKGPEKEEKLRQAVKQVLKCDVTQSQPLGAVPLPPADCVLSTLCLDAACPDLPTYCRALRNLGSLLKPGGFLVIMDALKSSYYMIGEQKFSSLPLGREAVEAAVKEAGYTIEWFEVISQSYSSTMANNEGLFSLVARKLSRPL
UniProt Q9UMY1: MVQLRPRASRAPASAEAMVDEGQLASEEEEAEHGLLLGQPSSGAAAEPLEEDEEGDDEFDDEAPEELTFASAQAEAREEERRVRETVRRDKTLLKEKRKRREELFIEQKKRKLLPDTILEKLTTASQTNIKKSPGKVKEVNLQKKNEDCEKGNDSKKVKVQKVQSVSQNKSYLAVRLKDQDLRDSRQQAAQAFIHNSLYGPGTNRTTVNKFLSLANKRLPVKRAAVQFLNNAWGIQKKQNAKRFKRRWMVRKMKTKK
UniProt Q9Y639: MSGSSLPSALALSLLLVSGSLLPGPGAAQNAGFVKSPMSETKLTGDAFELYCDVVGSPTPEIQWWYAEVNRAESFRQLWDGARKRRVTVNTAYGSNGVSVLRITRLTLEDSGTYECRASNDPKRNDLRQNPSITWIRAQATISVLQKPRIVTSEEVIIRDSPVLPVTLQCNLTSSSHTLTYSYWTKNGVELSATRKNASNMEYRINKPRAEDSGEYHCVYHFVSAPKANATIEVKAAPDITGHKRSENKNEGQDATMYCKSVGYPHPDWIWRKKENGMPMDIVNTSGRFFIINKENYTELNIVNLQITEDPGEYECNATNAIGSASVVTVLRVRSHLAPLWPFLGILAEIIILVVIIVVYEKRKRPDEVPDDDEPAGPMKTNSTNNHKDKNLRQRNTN
UniProt Q8NC60: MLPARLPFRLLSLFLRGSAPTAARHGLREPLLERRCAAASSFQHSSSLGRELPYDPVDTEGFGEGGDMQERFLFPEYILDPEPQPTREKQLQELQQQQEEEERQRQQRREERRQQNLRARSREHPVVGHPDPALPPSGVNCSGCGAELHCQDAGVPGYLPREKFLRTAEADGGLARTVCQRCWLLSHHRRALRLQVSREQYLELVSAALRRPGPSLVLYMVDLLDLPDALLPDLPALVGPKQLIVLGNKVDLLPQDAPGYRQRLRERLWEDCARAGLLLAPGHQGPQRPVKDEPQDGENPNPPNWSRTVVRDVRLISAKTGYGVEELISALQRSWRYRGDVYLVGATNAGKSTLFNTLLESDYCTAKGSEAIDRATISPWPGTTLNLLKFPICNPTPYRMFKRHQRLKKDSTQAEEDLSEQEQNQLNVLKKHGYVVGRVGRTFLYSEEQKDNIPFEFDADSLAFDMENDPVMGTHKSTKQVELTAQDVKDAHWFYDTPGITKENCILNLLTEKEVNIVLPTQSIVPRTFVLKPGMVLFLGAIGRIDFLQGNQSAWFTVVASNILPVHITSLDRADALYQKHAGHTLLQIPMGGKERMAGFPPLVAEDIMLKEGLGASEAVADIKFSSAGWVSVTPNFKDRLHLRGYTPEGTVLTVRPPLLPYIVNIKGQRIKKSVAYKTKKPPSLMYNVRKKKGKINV
UniProt Q8NCF5: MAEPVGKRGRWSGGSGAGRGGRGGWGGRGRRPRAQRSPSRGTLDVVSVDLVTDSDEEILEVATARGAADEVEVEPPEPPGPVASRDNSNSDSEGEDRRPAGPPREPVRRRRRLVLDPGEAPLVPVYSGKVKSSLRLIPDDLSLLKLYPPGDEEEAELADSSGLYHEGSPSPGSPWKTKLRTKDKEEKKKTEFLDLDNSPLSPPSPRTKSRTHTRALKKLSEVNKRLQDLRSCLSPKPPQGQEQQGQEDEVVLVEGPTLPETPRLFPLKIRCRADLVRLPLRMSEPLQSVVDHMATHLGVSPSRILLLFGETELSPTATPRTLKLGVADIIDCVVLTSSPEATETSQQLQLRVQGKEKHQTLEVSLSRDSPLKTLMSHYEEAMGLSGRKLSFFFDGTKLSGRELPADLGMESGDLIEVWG
UniProt P22392, whole entry, looked up: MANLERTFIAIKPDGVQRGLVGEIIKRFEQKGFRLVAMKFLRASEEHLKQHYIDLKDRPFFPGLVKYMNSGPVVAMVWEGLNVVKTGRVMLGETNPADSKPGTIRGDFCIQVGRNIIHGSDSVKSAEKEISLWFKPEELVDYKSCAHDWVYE
UniProt P23511, whole entry, looked up: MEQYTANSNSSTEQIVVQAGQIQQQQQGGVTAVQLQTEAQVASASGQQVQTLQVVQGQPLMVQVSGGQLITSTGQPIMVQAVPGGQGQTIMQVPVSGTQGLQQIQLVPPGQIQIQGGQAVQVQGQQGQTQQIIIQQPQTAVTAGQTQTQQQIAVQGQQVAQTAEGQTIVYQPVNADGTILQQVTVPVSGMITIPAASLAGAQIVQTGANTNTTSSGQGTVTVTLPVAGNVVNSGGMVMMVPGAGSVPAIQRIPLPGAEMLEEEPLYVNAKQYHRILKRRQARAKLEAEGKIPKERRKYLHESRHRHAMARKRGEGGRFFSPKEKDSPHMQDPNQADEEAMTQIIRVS
UniProt Q86X76: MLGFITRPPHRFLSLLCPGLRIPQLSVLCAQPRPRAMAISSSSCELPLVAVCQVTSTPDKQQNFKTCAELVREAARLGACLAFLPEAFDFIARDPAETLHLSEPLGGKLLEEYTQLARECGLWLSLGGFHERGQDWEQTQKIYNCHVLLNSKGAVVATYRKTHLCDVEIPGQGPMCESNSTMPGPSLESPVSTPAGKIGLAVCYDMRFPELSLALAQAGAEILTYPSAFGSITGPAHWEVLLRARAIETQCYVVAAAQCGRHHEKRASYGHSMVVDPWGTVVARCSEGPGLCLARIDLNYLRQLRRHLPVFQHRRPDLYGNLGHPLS
UniProt Q9NQR4: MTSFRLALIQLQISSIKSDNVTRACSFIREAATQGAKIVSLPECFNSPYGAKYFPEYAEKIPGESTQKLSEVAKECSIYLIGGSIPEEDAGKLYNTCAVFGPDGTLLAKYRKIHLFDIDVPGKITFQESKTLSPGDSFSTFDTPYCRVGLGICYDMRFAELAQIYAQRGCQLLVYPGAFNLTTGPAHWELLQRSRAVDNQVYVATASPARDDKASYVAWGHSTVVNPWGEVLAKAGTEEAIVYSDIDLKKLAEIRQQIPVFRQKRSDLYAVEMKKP
UniProt P55786: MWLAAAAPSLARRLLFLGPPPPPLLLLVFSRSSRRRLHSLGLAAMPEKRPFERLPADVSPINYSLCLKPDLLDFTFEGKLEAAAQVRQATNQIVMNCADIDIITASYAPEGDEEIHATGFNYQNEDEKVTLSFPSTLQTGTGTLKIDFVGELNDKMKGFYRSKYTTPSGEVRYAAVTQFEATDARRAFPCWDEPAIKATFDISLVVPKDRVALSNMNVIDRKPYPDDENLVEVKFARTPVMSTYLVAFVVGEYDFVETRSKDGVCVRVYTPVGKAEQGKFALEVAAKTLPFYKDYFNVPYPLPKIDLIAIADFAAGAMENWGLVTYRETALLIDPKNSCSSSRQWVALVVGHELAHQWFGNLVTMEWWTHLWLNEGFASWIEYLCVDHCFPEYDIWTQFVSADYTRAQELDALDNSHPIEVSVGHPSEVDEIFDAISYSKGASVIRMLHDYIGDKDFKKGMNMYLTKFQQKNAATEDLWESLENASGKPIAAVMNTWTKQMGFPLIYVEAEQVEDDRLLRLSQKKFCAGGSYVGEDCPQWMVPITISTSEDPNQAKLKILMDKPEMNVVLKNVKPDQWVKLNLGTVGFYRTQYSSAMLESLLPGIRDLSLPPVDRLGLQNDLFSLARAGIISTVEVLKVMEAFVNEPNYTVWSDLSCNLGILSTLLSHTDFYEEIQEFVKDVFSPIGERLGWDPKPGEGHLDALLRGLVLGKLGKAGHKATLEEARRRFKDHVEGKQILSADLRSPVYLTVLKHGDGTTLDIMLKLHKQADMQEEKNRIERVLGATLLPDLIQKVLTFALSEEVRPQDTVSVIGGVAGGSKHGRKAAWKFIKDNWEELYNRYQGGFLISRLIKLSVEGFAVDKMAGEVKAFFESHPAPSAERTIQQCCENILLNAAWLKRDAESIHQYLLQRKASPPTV
UniProt Q9UHY1: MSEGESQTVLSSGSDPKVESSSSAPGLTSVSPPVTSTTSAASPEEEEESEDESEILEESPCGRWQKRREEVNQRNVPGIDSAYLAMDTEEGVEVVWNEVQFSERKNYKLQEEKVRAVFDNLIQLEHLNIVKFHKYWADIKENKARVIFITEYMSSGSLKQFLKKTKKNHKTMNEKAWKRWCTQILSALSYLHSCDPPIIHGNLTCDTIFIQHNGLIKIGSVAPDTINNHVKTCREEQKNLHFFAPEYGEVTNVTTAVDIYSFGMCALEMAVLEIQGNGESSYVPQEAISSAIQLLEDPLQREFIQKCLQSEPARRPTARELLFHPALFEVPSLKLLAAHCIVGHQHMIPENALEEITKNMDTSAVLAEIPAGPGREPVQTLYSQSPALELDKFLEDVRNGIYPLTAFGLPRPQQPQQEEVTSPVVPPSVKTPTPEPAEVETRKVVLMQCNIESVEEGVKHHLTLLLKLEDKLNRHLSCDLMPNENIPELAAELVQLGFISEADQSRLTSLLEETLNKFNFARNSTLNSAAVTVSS
UniProt Q9Y221: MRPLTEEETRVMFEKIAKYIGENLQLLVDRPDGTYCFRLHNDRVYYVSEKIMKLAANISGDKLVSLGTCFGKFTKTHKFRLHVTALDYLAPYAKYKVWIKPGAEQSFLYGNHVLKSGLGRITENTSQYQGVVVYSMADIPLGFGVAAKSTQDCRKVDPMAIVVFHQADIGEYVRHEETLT
UniProt Q8NBF2: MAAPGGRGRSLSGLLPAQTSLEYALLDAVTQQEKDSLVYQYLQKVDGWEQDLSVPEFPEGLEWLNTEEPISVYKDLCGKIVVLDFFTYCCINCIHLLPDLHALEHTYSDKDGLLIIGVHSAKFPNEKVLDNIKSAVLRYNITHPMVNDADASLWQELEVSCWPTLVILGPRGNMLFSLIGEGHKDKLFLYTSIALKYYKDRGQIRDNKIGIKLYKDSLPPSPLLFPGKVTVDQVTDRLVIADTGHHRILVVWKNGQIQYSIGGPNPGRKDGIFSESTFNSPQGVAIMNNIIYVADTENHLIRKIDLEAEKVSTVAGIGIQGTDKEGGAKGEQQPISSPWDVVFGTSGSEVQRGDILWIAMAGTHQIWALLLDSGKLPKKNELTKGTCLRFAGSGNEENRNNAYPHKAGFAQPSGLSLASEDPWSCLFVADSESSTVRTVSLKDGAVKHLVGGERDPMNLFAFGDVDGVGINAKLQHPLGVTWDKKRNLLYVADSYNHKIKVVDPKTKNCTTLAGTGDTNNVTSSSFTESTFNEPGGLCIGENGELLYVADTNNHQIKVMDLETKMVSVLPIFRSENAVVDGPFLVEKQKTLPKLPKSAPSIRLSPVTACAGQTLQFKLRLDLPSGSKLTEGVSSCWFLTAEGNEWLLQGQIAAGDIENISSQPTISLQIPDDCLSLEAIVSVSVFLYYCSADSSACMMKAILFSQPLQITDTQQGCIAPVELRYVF
UniProt Q8TD19: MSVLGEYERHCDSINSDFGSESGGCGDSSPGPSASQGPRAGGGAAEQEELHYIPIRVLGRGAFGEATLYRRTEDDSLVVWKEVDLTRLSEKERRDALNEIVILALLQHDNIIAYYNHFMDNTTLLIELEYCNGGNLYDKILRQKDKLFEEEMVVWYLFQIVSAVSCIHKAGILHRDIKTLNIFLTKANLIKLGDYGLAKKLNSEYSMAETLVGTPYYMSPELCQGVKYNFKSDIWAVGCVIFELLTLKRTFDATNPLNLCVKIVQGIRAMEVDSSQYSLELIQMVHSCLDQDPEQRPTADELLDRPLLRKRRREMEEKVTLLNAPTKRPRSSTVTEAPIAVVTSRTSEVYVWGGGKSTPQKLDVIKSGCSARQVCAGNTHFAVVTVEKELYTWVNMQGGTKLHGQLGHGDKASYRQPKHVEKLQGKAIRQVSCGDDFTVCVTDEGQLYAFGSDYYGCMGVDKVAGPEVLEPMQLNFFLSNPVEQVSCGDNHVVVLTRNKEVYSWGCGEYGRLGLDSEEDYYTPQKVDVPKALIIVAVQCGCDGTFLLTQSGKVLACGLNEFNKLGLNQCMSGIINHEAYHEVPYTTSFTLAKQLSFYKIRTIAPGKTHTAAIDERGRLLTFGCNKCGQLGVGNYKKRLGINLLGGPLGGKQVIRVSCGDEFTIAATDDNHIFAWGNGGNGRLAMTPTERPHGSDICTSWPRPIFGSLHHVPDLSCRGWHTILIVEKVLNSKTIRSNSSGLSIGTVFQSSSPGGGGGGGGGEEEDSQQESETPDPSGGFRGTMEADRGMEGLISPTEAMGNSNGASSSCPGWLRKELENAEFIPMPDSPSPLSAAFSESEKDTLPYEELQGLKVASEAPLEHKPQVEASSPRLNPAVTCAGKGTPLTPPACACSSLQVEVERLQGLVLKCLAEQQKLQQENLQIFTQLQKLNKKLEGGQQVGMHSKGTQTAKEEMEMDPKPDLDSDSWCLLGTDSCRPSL

How the values were obtained:
Assay in all cases: log2 fold change, soluble protein after heating vs DMSO (PISA); higher = thermal stabilisation; K562 cells, 10 uM, 30 min; active = over 0.2 and 3.5 SD of the protein, either way, in both replicates (recomputed)
[1] = compound: COC1=CC=C(C=C1)CN2C=CC3=C2C=C(C=C3)C(=O)NO
How it was run: (§1)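 For each measurement, 10 μM compound was applied for 30 min to K562 cells at 2×10^6 cells/mL. Aliquots were heated for 3 min across 48°C-58°C, pooled, and extracted in PBS with 0.5% NP-40 at 4°C; the supernatant after 21,000xg for 90 min was soluble protein. This was quantified by TMTpro 16plex LC-MS/MS with channel sums equalised, and thermal stability was reported relative to control samples from duplicates, on a log2 fold-change scale.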

filanesib = compound: CON(C)C(=O)N1N=C(c2cc(F)ccc2F)S[C@@]1(CCCN)c1ccccc1 [filanesib]
How it was run: as §1

zotarolimus = compound: CO[C@H]1C[C@@H]2CC[C@@H](C)[C@@](O)(O2)C(=O)C(=O)N2CCCC[C@H]2C(=O)O[C@H]([C@H](C)C[C@@H]2CC[C@H](n3cnnn3)[C@H](OC)C2)CC(=O)[C@H](C)/C=C(\C)[C@@H](O)[C@@H](OC)C(=O)[C@H](C)C[C@H](C)/C=C/C=C/C=C/1C [zotarolimus]
How it was run: as §1

idasanutlin = compound: COc1cc(C(=O)O)ccc1NC(=O)[C@@H]1N[C@@H](CC(C)(C)C)[C@](C#N)(c2ccc(Cl)cc2F)[C@H]1c1cccc(Cl)c1F [idasanutlin]
How it was run: as §1

alisertib = compound: COc1cc(Nc2ncc3c(n2)-c2ccc(Cl)cc2C(c2c(F)cccc2OC)=NC3)ccc1C(=O)O [alisertib]
How it was run: as §1

[2] = compound: COc1cc2nc(-c3cc(F)ccc3O)nc(N[C@@H]3CNC[C@H]3C(C)(C)O)c2cc1OC
How it was run: as §1

gefitinib = compound: COc1cc2ncnc(Nc3ccc(F)c(Cl)c3)c2cc1OCCCN1CCOCC1 [gefitinib]
How it was run: as §1

[3] = compound: COc1cccc2cc(-c3nc([C@H]4CC[C@H](C(=O)O)CC4)n4ncnc(N)c34)[nH]c12
How it was run: as §1

lapatinib = compound: CS(=O)(=O)CCNCc1ccc(-c2ccc3ncnc(Nc4ccc(OCc5cccc(F)c5)c(Cl)c4)c3c2)o1 [lapatinib]
How it was run: as §1

pictilisib = compound: CS(=O)(=O)N1CCN(Cc2cc3nc(-c4cccc5[nH]ncc45)nc(N4CCOCC4)c3s2)CC1 [pictilisib]
How it was run: as §1

| Target | log2 fold change [1] | log2 fold change (filanesib) | log2 fold change (zotarolimus) | log2 fold change (idasanutlin) | log2 fold change (alisertib) | log2 fold change [2] | log2 fold change (gefitinib) | log2 fold change [3] | log2 fold change (lapatinib) | log2 fold change (pictilisib) |
| --- | --- | --- | --- | --- | --- | --- | --- | --- | --- | --- |
| NNMT (UniProt P40261) | inactive: -0.057 | inactive: -0.163 | inactive: -0.001 | inactive: -0.076 | inactive: -0.06 | inactive: 0.216 | inactive: 0.041 | inactive: 0.017 | inactive: -0.019 | inactive: 0.06 |
| NOL7 (UniProt Q9UMY1) | inactive: -0.089 | inactive: 0.524 | inactive: -0.024 | inactive: 0.157 | inactive: -0.119 | inactive: -0.086 | inactive: -0.006 | inactive: -0.142 | inactive: 0.169 | inactive: -0.095 |
| NPTN (UniProt Q9Y639) | inactive: 0.173 | inactive: 0.132 | inactive: -0.03 | inactive: 0.109 | inactive: 0.019 | inactive: 0.132 | inactive: 0.036 | inactive: 0.141 | inactive: -0.038 | inactive: 0.038 |
| NOP56 (UniProt O00567) | inactive: -0.083 | active: 0.605 | inactive: 0.136 | inactive: 0.345 | inactive: 0.007 | inactive: 0.045 | inactive: -0.046 | inactive: -0.078 | inactive: 0.098 | inactive: 0.013 |
| NSF (UniProt P46459) | inactive: -0.002 | inactive: -0.051 | inactive: 0.028 | inactive: -0.054 | inactive: -0.021 | inactive: 0.048 | inactive: -0.037 | inactive: -0.007 | inactive: 0 | inactive: 0.03 |
| NOA1 (UniProt Q8NC60) | inactive: -0.049 | inactive: 0.08 | inactive: -0.07 | inactive: -0.068 | inactive: 0.006 | inactive: -0.044 | inactive: -0.027 | inactive: -0.078 | inactive: -0.005 | inactive: -0.004 |
| NENF (UniProt Q9UMX5) | inactive: -0.023 | inactive: -0.031 | inactive: -0.026 | inactive: -0.064 | inactive: -0.029 | inactive: 0.061 | inactive: 0.034 | inactive: 0.012 | inactive: -0.024 | inactive: -0.007 |
| NGLY1 (UniProt Q96IV0) | inactive: 0.02 | inactive: 0.043 | inactive: -0.012 | inactive: 0.112 | inactive: -0.064 | inactive: 0.047 | inactive: 0.076 | inactive: -0.128 | inactive: 0.03 | inactive: 0.045 |
| NFATC2IP (UniProt Q8NCF5) | inactive: -0.008 | inactive: -0.015 | inactive: -0.021 | inactive: -0.141 | inactive: 0.01 | inactive: 0.026 | inactive: 0 | inactive: 0.056 | inactive: 0.029 | inactive: 0.098 |
| NME2 isoform 2 (UniProt P22392) | inactive: -0.014 | inactive: -0.012 | inactive: -0.029 | inactive: -0.017 | inactive: -0.041 | inactive: 0.035 | inactive: -0.011 | inactive: 0.086 | inactive: -0.047 | inactive: 0.063 |
| NFS1 (UniProt Q9Y697) | inactive: -0.012 | inactive: -0.05 | inactive: 0.019 | inactive: -0.034 | inactive: -0.009 | inactive: 0.06 | inactive: 0.028 | inactive: 0.025 | inactive: -0.031 | inactive: -0.008 |
| NFX1 (UniProt Q12986) | inactive: -0.152 | inactive: 0.133 | inactive: -0.141 | inactive: 0.102 | inactive: 0.203 | inactive: 0.079 | inactive: 0.037 | inactive: -0.012 | inactive: 0.112 | inactive: 0.004 |
| NRDC isoform 2 (UniProt O43847) | inactive: 0 | inactive: -0.038 | inactive: 0.005 | inactive: -0.026 | inactive: 0.013 | inactive: 0.076 | inactive: -0.022 | inactive: -0.001 | inactive: -0.019 | inactive: -0.029 |
| NLRP2 (UniProt Q9NX02) | inactive: -0.015 | inactive: 0.121 | inactive: 0.017 | inactive: -0.007 | inactive: 0.003 | inactive: -0.006 | inactive: 0.058 | inactive: -0.108 | inactive: 0.02 | inactive: 0.056 |
| NFAT5 isoform 5 (UniProt O94916) | inactive: -0.079 | inactive: 0.1 | inactive: 0.1 | inactive: -0.237 | inactive: 0.006 | inactive: -0.114 | inactive: -0.029 | inactive: 0.319 | inactive: 0.005 | inactive: 0.111 |
| NOP58 (UniProt Q9Y2X3) | inactive: -0.124 | active: 0.528 | inactive: 0.044 | inactive: 0.229 | inactive: -0.035 | inactive: -0.096 | inactive: 0.039 | inactive: -0.028 | inactive: 0.054 | inactive: 0.049 |
| NFYA (UniProt P23511) | inactive: -0.064 | inactive: -0.128 | inactive: 0.003 | inactive: -0.04 | inactive: -0.082 | inactive: 0.079 | inactive: 0.009 | inactive: 0.088 | inactive: 0.033 | inactive: 0.065 |
| NQO1 (UniProt P15559) | inactive: 0.062 | inactive: -0.053 | inactive: 0.069 | inactive: -0.085 | inactive: -0.094 | inactive: 0.011 | inactive: -0.006 | inactive: 0.001 | inactive: -0.017 | inactive: -0.006 |
| NIT1 (UniProt Q86X76) | inactive: 0.068 | inactive: 0.015 | inactive: 0.007 | inactive: -0.055 | inactive: -0.012 | inactive: -0.014 | inactive: 0.024 | inactive: -0.003 | inactive: 0.027 | inactive: 0.028 |
| NOP14 (UniProt P78316) | inactive: 0.063 | inactive: -0.008 | inactive: -0.001 | inactive: 0.282 | inactive: -0.041 | – | inactive: 0.037 | inactive: -0.121 | – | inactive: -0.097 |
| NRBF2 (UniProt Q96F24) | inactive: -0.017 | inactive: -0.005 | inactive: -0.011 | inactive: 0.012 | inactive: 0.146 | inactive: -0.025 | inactive: -0.008 | inactive: -0.017 | inactive: 0.055 | inactive: 0.102 |
| NIT2 (UniProt Q9NQR4) | inactive: 0.014 | inactive: -0.002 | inactive: 0.035 | inactive: -0.048 | inactive: 0.007 | inactive: 0.035 | inactive: 0.027 | inactive: 0.016 | inactive: -0.041 | inactive: 0.089 |
| NPEPPS (UniProt P55786) | active: 0.22 | inactive: -0.056 | active: 0.338 | inactive: -0.072 | inactive: -0.017 | inactive: 0.037 | inactive: -0.026 | inactive: 0.066 | inactive: -0.002 | inactive: -0.001 |
| NRBP1 (UniProt Q9UHY1) | inactive: 0.011 | inactive: -0.034 | inactive: 0.008 | inactive: -0.025 | inactive: -0.024 | inactive: -0.013 | inactive: -0.023 | inactive: 0.006 | inactive: 0.012 | inactive: 0.008 |
| NIP7 (UniProt Q9Y221) | inactive: 0.024 | inactive: 0.397 | inactive: 0.081 | inactive: 0.16 | inactive: -0.211 | inactive: -0.004 | inactive: 0.029 | inactive: 0.009 | inactive: 0.062 | inactive: 0.018 |
| NHLRC2 (UniProt Q8NBF2) | inactive: -0.084 | inactive: -0.062 | inactive: -0.001 | inactive: -0.061 | inactive: 0.1 | inactive: 0.061 | inactive: -0.011 | inactive: 0.123 | inactive: -0.057 | inactive: 0.062 |
| NEK9 (UniProt Q8TD19) | inactive: 0.022 | inactive: 0.039 | inactive: 0.027 | inactive: -0.002 | inactive: -0.048 | inactive: 0.011 | inactive: 0 | inactive: -0.007 | inactive: 0.014 | inactive: 0.038 |

An excerpt of these results, tab-delimited.
Target	log2 fold change [1]	log2 fold change (filanesib)	log2 fold change (zotarolimus)	log2 fold change (idasanutlin)	log2 fold change (alisertib)	log2 fold change [2]	log2 fold change (gefitinib)	log2 fold change [3]	log2 fold change (lapatinib)	log2 fold change (pictilisib)
NME2 isoform 2 (UniProt P22392)	inactive: -0.014	inactive: -0.012	inactive: -0.029	inactive: -0.017	inactive: -0.041	inactive: 0.035	inactive: -0.011	inactive: 0.086	inactive: -0.047	inactive: 0.063
NFS1 (UniProt Q9Y697)	inactive: -0.012	inactive: -0.05	inactive: 0.019	inactive: -0.034	inactive: -0.009	inactive: 0.06	inactive: 0.028	inactive: 0.025	inactive: -0.031	inactive: -0.008
